Patent US4798834A, “Optionally substituted (3β-9,10-didehydro-2,3-dihydro ergoline as serotonergic function enhancement” (Eli Lilly and Company, priority 1987, dated 1989)
pIC50: −log10 of the molar value.

Target: 5-HT1 receptor
Assay: binding to 5-HT1 sites ([3H]serotonin displacement, rat brain frontal cortex)
Set-up: species or system rat (Wistar)
Conditions: 2 nM [3H]serotonin
Description: All radioactive ligands were obtained from New England Nuclear, Boston, Mass., USA. Specific binding was determined as the difference between total binding and nonspecific binding. Eleven concentrations of each of the compounds tested were used between 0.1 and 10,000 nM. All samples were run in duplicate.

Work on `O=C(CCCN1CCC2(CC1)C(=O)NCN2c1ccccc1)c1ccc(F)cc1` [spiperone, reference compound] yielded a pIC50 of 6.40.
